In publication PMC6515119:

Biological target: T1, Homeodomain-interacting protein kinase (Hipk) fused C-terminally to the N-terminal fragment of YFP (Drosophila) (UniProt Q9W0Q1)
T1 sequence: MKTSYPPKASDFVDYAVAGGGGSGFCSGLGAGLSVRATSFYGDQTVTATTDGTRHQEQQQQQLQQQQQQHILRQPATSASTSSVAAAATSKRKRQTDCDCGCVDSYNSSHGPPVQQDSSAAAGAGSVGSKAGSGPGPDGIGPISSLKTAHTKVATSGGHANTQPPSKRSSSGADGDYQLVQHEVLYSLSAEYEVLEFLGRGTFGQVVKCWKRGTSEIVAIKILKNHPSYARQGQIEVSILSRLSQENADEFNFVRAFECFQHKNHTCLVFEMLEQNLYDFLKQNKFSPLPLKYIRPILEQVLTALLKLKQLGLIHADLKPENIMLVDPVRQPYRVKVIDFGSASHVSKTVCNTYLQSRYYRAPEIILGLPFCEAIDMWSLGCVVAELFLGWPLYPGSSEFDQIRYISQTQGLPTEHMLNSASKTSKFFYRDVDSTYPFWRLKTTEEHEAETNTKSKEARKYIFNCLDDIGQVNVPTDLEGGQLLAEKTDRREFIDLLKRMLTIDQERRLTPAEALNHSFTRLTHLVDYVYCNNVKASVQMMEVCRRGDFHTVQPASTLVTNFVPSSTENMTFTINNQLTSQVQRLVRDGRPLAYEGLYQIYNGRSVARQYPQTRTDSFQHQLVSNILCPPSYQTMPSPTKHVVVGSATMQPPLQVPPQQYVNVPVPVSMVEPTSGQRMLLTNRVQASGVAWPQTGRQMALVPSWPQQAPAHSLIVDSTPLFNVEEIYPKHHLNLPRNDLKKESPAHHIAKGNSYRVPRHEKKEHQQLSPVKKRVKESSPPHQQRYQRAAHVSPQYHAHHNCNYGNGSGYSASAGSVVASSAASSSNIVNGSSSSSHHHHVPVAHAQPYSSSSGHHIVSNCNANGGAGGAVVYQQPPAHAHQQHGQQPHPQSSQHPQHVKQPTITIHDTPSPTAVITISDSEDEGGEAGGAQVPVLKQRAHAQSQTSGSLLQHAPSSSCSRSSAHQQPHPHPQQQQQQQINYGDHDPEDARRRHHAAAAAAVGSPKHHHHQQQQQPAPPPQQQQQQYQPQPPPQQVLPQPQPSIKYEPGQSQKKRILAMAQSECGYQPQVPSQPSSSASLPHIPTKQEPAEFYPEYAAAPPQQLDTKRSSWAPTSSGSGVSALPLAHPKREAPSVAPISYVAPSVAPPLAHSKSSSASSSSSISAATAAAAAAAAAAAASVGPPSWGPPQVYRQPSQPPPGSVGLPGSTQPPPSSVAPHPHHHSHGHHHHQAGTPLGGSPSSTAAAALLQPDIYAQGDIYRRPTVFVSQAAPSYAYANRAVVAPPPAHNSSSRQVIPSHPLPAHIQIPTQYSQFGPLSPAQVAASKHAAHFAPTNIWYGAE
Assay: split reporter; BiFC: NYFP and CYFP fusions coexpressed from UAS constructs with MS1096-Gal4 in third larval instar wing imaginal discs; crosses at 25 °C; anti-GFP immunostaining to enhance the YFP signal

binding: binds
Substance: Homeobrain (Hbn) fused to the C-terminal fragment of YFP (Drosophila)

These are yes or no findings as the source states them, for the method shown. In cells and extracts the contact can be indirect. Binding can be weak; no strength is given. Sequences can lack the tags named with a protein.
